The text below walks through data of patent US20170088632A1.

Sequences of proteins named here, by UniProt entry; tags and fusion partners are left off. A change or cut given only in a name is not applied to a line headed by its entry.
UniProt Q9JJS8: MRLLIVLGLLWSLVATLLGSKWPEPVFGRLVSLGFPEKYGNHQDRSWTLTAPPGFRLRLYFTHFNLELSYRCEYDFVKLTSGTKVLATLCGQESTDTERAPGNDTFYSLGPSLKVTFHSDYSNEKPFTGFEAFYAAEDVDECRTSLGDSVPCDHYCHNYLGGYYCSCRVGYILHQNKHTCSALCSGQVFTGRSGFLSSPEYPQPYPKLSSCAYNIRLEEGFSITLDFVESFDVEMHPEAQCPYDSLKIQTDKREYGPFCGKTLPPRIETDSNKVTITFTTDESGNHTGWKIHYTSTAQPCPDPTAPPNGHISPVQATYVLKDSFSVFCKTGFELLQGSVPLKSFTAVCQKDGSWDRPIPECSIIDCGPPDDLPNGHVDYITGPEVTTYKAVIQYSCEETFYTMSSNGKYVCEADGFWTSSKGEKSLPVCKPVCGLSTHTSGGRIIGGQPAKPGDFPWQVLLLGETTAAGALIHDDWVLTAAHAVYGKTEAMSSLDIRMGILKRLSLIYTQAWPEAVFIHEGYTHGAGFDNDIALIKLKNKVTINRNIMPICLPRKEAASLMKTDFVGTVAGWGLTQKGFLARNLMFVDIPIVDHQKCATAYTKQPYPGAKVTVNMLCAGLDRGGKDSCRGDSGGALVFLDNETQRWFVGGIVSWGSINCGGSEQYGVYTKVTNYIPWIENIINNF
UniProt O00187: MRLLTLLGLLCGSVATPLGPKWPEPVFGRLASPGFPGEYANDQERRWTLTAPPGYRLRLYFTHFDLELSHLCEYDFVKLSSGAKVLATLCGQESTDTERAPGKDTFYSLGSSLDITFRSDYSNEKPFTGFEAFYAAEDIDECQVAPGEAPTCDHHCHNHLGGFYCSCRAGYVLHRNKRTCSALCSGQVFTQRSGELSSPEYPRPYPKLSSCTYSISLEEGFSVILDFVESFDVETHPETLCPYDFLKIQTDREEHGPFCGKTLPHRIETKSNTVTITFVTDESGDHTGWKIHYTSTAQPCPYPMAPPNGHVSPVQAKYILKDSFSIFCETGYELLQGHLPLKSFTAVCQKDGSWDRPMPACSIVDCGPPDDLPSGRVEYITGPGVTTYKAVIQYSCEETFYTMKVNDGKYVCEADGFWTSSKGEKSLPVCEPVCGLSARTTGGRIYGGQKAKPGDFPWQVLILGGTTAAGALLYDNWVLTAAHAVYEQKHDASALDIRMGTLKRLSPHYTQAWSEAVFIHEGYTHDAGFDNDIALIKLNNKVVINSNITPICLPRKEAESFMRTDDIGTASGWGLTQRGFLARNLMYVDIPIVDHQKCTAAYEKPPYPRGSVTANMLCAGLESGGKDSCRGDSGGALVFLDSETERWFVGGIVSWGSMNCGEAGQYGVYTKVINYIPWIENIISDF

Assay [1] deals with T1, rat MASP-2A (catalytically inactive rat MASP-2, Ser617 to Ala617) (rat) (UniProt Q9JJS8).
T1 sequence: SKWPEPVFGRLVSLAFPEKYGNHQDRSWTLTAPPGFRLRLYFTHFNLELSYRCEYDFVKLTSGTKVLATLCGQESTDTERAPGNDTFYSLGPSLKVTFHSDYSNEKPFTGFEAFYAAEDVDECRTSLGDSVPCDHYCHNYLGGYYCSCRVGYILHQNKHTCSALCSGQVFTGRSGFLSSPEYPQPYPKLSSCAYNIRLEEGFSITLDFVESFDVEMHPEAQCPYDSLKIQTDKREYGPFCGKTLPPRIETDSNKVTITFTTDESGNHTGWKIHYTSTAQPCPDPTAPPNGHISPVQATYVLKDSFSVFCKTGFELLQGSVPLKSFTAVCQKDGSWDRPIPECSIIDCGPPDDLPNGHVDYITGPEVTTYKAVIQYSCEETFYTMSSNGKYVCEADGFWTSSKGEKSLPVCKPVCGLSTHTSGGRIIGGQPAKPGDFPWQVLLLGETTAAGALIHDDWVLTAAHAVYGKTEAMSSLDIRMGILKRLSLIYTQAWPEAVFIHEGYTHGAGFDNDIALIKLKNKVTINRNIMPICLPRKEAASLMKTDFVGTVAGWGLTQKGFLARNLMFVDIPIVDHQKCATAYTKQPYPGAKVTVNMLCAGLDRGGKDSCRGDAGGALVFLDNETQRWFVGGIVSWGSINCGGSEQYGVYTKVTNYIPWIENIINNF
As to the kind of experiment: ELISA on adsorbed rat MASP-2A. A general note: ELISA stands for enzyme-linked immunosorbent assay.

In assay [2] the target is human MASP-2A (catalytically inactive human MASP-2, Ser618 to Ala618) (human) (UniProt O00187). As to the kind of experiment: ELISA on adsorbed MASP-2A.
A further assay concerns the target human MASP-2 (human) (UniProt O00187). Described as told with Table 23 and FIGS. 11A and 11B.

Results are given in words; binding and its absence hold for the method and conditions named. Some binding calls cover weakened binding; strength is not graded here.

B1: scFv mother clone 17D20 (scFv)
scFv: QVTLKESGPVLVKPTETLTLTCTVSGFSLSRGKMGVSWIRQPPGKALEWLAHIFSSDEKSYRTSLKSRLTISKDTSKNQVVLTMTNMDPVDTATYYCARIRAGGIDYWGQGTLVTVSSKLSGSASAPKLEEGEFSEARVQPVLTQPPSVSVSPGQTASITCSGDKLGDKFAYWYQQKPGHSPVLVIYQDNKRPSGIPGRFSGSNSGNTATLTISGTQAMDEADYYCQAWDSSTAVFGTGTKVTVLAAAGSEQKLISEEDLNSHHHHHH
For B1, the binding entry in assay [1] is given as “binds”.

B2: scFv mother clone 3F22 (scFv)
scFv: QVQLQQSGPGLVKPSQTLSLTCAISGDSVSSNSAAWNWIRQSPSRGLEWLGRTYYRSKWYNDYAVSVKSRITINPDTSKNQFSLQLNSVTPEDTAVYYCARDPFGVPFDIWGQGTMVTVSSKLSGSASAPKLEEGEFSEARVSYVLTQPPSVSVAPGQTARVTCGGNNIRSKNVHWYQQKPGQAPVLVVYDDTDRPSGIPERFSGSNSGNTATLTVSRVEAGDEADYYCQVWDTTTDHVVFGGGTKLTVLAAAGSEQKLISEEDLNSHHHHHH
Consider B2, for which, in assay [2], the binding result is on record as “binds”.

B3: scFv mother clone 17N16 (scFv)
scFv: QVQLQQSGPGLVKPSQTLSLTCAISGDSVSSTSAAWNWIRQSPSRGLEWLGRTYYRSKWYNDYAVSVKSRITINPDTSKNQFSLQLNSVTPEDTAVYYCARDPFGVPFDIWGQGTMVTVSSKLSGSASAPKLEEGEFSEARVSYVLTQPPSVSVAPGQTARITCGGNNIGSKNVHWYQQKPGQAPVLVVYDDSDRPSGIPERFSGSNSGNTATLTVSRVEAGDEADYYCQVWDTTTDHVVFGGGTKLTVLAAAGSEQKLISEEDLNSHHHHHH
Regarding B3, the binding result in assay [1] is recorded as “binds”.

B4: scFv mother clone 9P13 (scFv)
scFv: QVQLQQSGPGLVKPSQTLSLTCAISGDSVSSNSAAWNWIRQSPSRGLEWLGRTYYRSKWYNDYAVSVKSRITINPDTSKNQFSLQLNSVTPEDTAVYYCARDPFGVPFDIWGQGTMVTVSSKLSGSASAPKLEEGEFSEARVSYELTQLPSVSVAPGQTARVTCGGNNIRSKNVHWYQQKPGQAPVLVVYDDTDRPSGIPERFSGSNSGNTATLTVSRVEAGDEADYYCQVWDTTTDHVVFGGGTKVTVLAAAGSEQKLISEEDLNSHHHHHH
Consider B4, for which, in assay [1], the binding entry is listed as “binds”.

B5: MoAb #1 (OMS641), 17N16m_d17N9 IgG2 (antibody)
heavy: QVQLQQSGPGLVKPSQTLSLTCAISGDSVSSTSAAWNWIRQSPSRGLEWLGRTYYRSKWYNDYAVSVKSRITINPDTSKNQFSLQLNSVTPEDTAVYYCARDPFGVPFDIWGQGTMVTVSSASTKGPSVFPLAPCSRSTSESTAALGCLVKDYFPEPVTVSWNSGALTSGVHTFPAVLQSSGLYSLSSVVTVPSSNFGTQTYTCNVDHKPSNTKVDKTVERKCCVECPPCPAPPVAGPSVFLFPPKPKDTLMISRTPEVTCVVVDVSHEDPEVQFNWYVDGVEVHNAKTKPREEQFNSTFRVVSVLTVVHQDWLNGKEYKCKVSNKGLPAPIEKTISKTKGQPREPQVYTLPPSREEMTKNQVSLTCLVKGFYPSDIAVEWESNGQPENNYKTTPPMLDSDGSFFLYSKLTVDKSRWQQGNVFSCSVMHEALHNHYTQKSLSLSPGK
light: SYELIQPPSVSVAPGQTATITCAGDNLGKKRVHWYQQRPGQAPVLVIYDDSDRPSGIPDRFSASNSGNTATLTITRGEAGDEADYYCQVWDIATDHVVFGGGTKLTVLGQPKAAPSVTLFPPSSEELQANKATLVCLISDFYPGAVTVAWKADSSPVKAGVETTTPSKQSNNKYAASSYLSLTPEQWKSHRSYSCQVTHEGSTVEKTVAPTECS
As to B5, in the assay with human MASP-2 (human), the binding entry was “binds”.

B6: scFv mother clone 4D9 (scFv)
scFv: QITLKESGPVLVKPTETLTLTCTVSGFSLSNARMGVSWIRQPPGKALEWLAHIFSNDEKSYSTSLKSRLTISKDTSKSQVVLTMTNMDPVDTATYYCARMRYSSSLYGMDVWGQGTRVTVSSKLSGSASAPKLEEGEFSEARVSYELIQPPSVSVSPGQTASITCSGDKLGDKYVSWYQQKPGRSPVLVIYRDTKRPSGIPERFSGSNSGNTATLTISGTQAMDEADYYCQAWDSSTVVFGGGTKLTVLAAAGSEQKLISEEDLNSHHHHHH
Take B6: in assay [1], the binding result was “binds”.
